Results are given in words; binding and its absence hold for the method and conditions named. Some entries that bind do so weakly or less than the wild type. Where a sequence is shown, tags or fusion partners need not be part of it.
T1: NuoF, subunit of E. coli respiratory complex I, His-tagged (from plasmid pBADnuoHis / pBADnuo HisnuoF) (E. coli) (UniProt P31979)
T1 sequence: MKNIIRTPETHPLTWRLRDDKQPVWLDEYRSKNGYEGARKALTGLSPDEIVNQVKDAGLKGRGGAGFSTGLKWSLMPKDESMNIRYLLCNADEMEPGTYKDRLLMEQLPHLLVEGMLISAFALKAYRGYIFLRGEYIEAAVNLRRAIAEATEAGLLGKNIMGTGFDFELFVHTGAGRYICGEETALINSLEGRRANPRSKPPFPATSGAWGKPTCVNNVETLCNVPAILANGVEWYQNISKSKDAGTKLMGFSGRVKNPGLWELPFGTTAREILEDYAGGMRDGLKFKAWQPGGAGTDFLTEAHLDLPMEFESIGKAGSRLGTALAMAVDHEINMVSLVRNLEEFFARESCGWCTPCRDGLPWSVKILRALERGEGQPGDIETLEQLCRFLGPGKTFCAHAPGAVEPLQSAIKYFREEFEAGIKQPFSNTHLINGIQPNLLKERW

B1: NuoG, subunit of E. coli respiratory complex I (protein, UniProt P33602 1-908)
chain: MATIHVDGKEYEVNGADNLLEACLSLGLDIPYFCWHPALGSVGACRQCAVKQYQNAEDTRGRLVMSCMTPASDGTFISIDDEEAKQFRESVVEWLMTNHPHDCPVCEEGGNCHLQDMTVMTGHSFRRYRFTKRTHRNQDLGPFISHEMNRCIACYRCVRYYKDYADGTDLGVYGAHDNVYFGRPEDGTLESEFSGNLVEICPTGVFTDKTHSERYNRKWDMQFAPSICQQCSIGCNISPGERYGELRRIENRYNGTVNHYFLCDRGRFGYGYVNLKDRPRQPVQRRGDDFITLNAEQAMQGAADILRQSKKVIGIGSPRASVESNFALRELVGEENFYTGIAHGEQERLQLALKVLREGGIYTPALREIESYDAVLVLGEDVTQTGARVALAVRQAVKGKAREMAAAQKVADWQIAAILNIGQRAKHPLFVTNVDDTRLDDIAAWTYRAPVEDQARLGFAIAHALDNSAPAVDGIEPELQSKIDVIVQALAGAKKPLIISGTNAGSLEVIQAAANVAKALKGRGADVGITMIARSVNSMGLGIMGGGSLEEALTELETGRADAVVVLENDLHRHASAIRVNAALAKAPLVMVVDHQRTAIMENAHLVLSAASFAESDGTVINNEGRAQRFFQVYDPAYYDSKTVMLESWRWLHSLHSTLLSREVDWTQLDHVIDAVVAKIPELAGIKDAAPDATFRIRGQKLAREPHRYSGRTAMRANISVHEPRQPQDIDTMFTFSMEGNNQPTAHRSQVPFAWAPGWNSPQAWNKFQDEVGGKLRFGDPGVRLFETSENGLDYFTSVPARFQPQDGKWRIAPYYHLFGSDELSQRAPVFQSRMPQPYIKLNPADAAKLGVNAGTRVSFSYDGNTVTLPVEIAEGLTAGQVGLPMGMSGIAPVLAGAHLEDLKEAQQ
B2: NuoH, subunit of E. coli respiratory complex I (parental) (protein, UniProt P0AFD4 1-325)
chain: MSWISPELIEILLTILKAVVILLVVVTCGAFMSFGERRLLGLFQNRYGPNRVGWGGSLQLVADMIKMFFKEDWIPKFSDRVIFTLAPMIAFTSLLLAFAIVPVSPGWVVADLNIGILFFLMMAGLAVYAVLFAGWSSNNKYSLLGAMRASAQTLSYEVFLGLSLMGVVAQAGSFNMTDIVNSQAHVWNVIPQFFGFITFAIAGVAVCHRHPFDQPEAEQELADGYHIEYSGMKFGLFFVGEYIGIVTISALMVTLFFGGWQGPLLPPFIWFALKTAFFMMMFILIRASLPRPRYDQVMSFGWKICLPLTLINLLVTAAVILWQAQ
B3: NuoH D213G, subunit of the D213G^H variant of E. coli respiratory complex I (protein, UniProt P0AFD4 1-325)
chain: MSWISPELIEILLTILKAVVILLVVVTCGAFMSFGERRLLGLFQNRYGPNRVGWGGSLQLVADMIKMFFKEDWIPKFSDRVIFTLAPMIAFTSLLLAFAIVPVSPGWVVADLNIGILFFLMMAGLAVYAVLFAGWSSNNKYSLLGAMRASAQTLSYEVFLGLSLMGVVAQAGSFNMTDIVNSQAHVWNVIPQFFGFITFAIAGVAVCHRHPFGQPEAEQELADGYHIEYSGMKFGLFFVGEYIGIVTISALMVTLFFGGWQGPLLPPFIWFALKTAFFMMMFILIRASLPRPRYDQVMSFGWKICLPLTLINLLVTAAVILWQAQ

Biological target: T1, NuoF, subunit of E. coli respiratory complex I, His-tagged (from plasmid pBADnuoHis / pBADnuo HisnuoF) (E. coli)
Assay: co-purification (Ni2+ affinity chromatography and size exclusion chromatography, SDS-PAGE); LMNG extract of cytoplasmic membranes applied to ProBond Ni2+-IDA (His tag), washed with 116 mM imidazole, eluted with 308 mM imidazole at pH 6.8, then Superose 6 in buffer A*MNG; 4 °C; subunits seen by SDS-PAGE

For B1, which binding is on record?
The binding was “binds”.

How did the binding turn out when B2 was run?
The binding was “binds”.

B3 was tested. Which binding did it give?
The binding was “binds”.
